Measurements from article PMC5047049, “Characterization of a functional C3A liver spheroid model” (Toxicology Research, 2016).
Entries after “also recorded” stand apart in the source; their conditions may differ.

Tested on: C3A spheroids
Experiment: Visualisation of compound penetration into spheroids by LightSheet microscopy
Type: cell-based
Settings: 11 day old 750 cell spheroids (around 263 μm diameter), 3 μg per ml for 24 hours

**Q.** Which “Penetration throughout the spheroid” value does the source give for COc1cccc2c1C(=O)c1c(O)c3c(c(O)c1C2=O)C[C@@](O)(C(=O)CO)C[C@@H]3O[C@H]1C[C@H](N)[C@H](O)[C@H](C)O1 [doxorubicin] here?
**A.** Its value is “Penetration of doxorubicin throughout the spheroid core was demonstrated; also recorded: fluorescing throughout the spheroid core; also recorded: can penetrate into cells in the core of a spheroid”.
